# In the supplement of paper PMC4371806:
# Whole data set: some 2,300 compounds, median “plate-normalized OD600 growth (mean of duplicates)” near 0.29, cut for the lowest 2% near 0.22. Some of the results follow.
# System: Escherichia coli BW25113
# Experiment: plate-normalized OD600 growth (mean of duplicates) (OD600 (normalized)); higher = more growth (less inhibition)
# Settings: 10 µM
# Description: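 E. coli BW25113 in LB (100 µl, 96-well, no shaking) was exposed to 10 µM of each compound from a ~30,000-member library and grown at 37°C for 24 h or 15°C for 48 h, in duplicate. Growth was read as OD600 and the duplicate ODs were normalized across screening plates to correct plate-to-plate variation. Hits were >3σ below the mean OD600 at 15°C and <2σ below the mean at 37°C.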
SMILES,"plate-normalized OD600 growth (temperature: 15°C, 48 h)","plate-normalized OD600 growth (temperature: 37°C, 24 h)"
Cc1cc(C2=CSC3=NCCN23)ccc1Cl,0.238,0.623
O=C1c2ccccc2C(=O)N1/N=C/c1ccc(Oc2ccc([N+](=O)[O-])cn2)cc1,0.266,0.636
O=c1[nH]c2cccnc2[nH]c1=O,0.233,0.617
Cc1ccc(NC(=O)c2c(F)cccc2Cl)c(C(=O)Nc2ccc(F)cc2)c1,0.265,0.617
CC1Cn2c(nnc2-c2cccc(O)c2)S1 (configuration not stated),0.247,0.622
COc1cccc(-c2cc(C(F)(F)F)nc(SC3CC(=O)C4OCC3O4)n2)c1 (configuration not stated),0.238,0.614
CC12c3ccccc3C(c3ccccc31)C1C(=O)N(Cc3cccnc3)C(=O)C12 (configuration not stated),0.241,0.618
CCOC(=O)N/N=C\c1cccs1,0.263,0.63
Cc1ccccc1OCC(=O)Nc1cccc(N2C(=O)c3ccccc3C2=O)c1,0.235,0.661
N#CC1=C(c2ccc(Cl)cc2)Sc2nnc(C(F)(F)F)n2N=C1N,0.255,0.611
CCOC(=O)c1cnc(SCC(=O)c2ccc(Cl)cc2Cl)[nH]1,0.244,0.618
NC(=O)CCCCCCCCCC(Cc1ccccc1)C(=O)O (configuration not stated),0.246,0.623
Clc1ccc(OCc2cn3ccccc3n2)c2ncccc12,0.251,0.612
COc1ccc(C(=O)NC(N2CCCCC2c2cccnc2)(C(F)(F)F)C(F)(F)F)cc1 (configuration not stated),0.256,0.616
O=C(OCCN1CCOCC1)c1ccccc1Br,0.244,0.629
CC(=O)NC(=O)/C(C#N)=C/N1CCN(Cc2ccccc2)CC1,0.253,0.611
CC(C)(CNc1ccc([N+](=O)[O-])cc1Cl)CNS(C)(=O)=O,0.245,0.605
Cc1cc(S(=O)(=O)n2nnc3ccccc32)c(C)cc1Br,0.244,0.63
Cc1nnc(N/N=C(\CCC(=O)O)C(=O)O)[nH]c1=O,0.242,0.603
COC(=O)c1ccccc1CSc1nccc(C(F)(F)F)n1,0.248,0.615
COc1ccc(C2(CNS(=O)(=O)c3ccc(C)cc3)CCOCC2)cc1,0.251,0.645
O=S(=O)(c1cccc2nsnc12)N1CCC(Cc2ccccc2)CC1,0.236,0.614
Oc1c(F)cccc1C=Nc1ccc(N2CCOCC2)cc1,0.234,0.619

SMILES,"plate-normalized OD600 growth (temperature: 15°C, 48 h)","plate-normalized OD600 growth (temperature: 37°C, 24 h)"
CCCCOc1cc(C(=O)O)ccc1OC,0.261,0.64
Cc1cc(C(F)(F)F)nn1CC(=O)Nc1ccc(CC#N)cc1,0.252,0.612
O=C(CSc1ccccn1)Nc1ncc(Br)cc1Br,0.239,0.635
O=c1nc(-c2ccccc2)nc(-c2ccccc2)[nH]1,0.26,0.617
CCCCOc1ccc(N2C(=O)CC(N3CCN(c4cccc(C(F)(F)F)c4)CC3)C2=O)cc1 (configuration not stated),0.253,0.61
CC(=O)c1csc([N+](=O)[O-])c1,0.22,0.616
O=[N+]([O-])c1cc(Oc2cccc(Cl)c2)c2c(c1)Oc1ccccc1C=C2,0.235,0.565
CCOC(=O)c1cc(CN2CCOCC2)c(C)o1,0.237,0.614
COc1ccc(C(=O)NN2C(=O)C3C(C2=O)C2C=CC3C23CC3)cc1 (configuration not stated),0.249,0.604
COc1ccc(S(=O)(=O)n2ccnc2C)cc1,0.251,0.62
S=c1[nH]nc(-c2ccncc2)n1-c1ccccc1,0.239,0.621
Cc1ccc(-c2cc(C(F)(F)F)n3nc(C(=O)N(C)Cc4ccccc4)cc3n2)cc1,0.252,0.638
CCOC(=O)C(=CNNc1ccnc2cc(Cl)ccc12)C(=O)OCC,0.26,0.616
Cc1cc(=O)oc2cc(NC=C3C(=O)OC(C)(C)OC3=O)ccc12,0.247,0.599
O=C(NCCc1ccc(Cl)cc1)C(=O)NCC1CCCO1 (configuration not stated),0.252,0.629
CCN(CC)c1ccc(/C=N/n2cnnc2)c(OCc2ccc(Cl)cc2)c1,0.248,0.63
COc1cc(C=Nc2c(C)nn(-c3ccc([N+](=O)[O-])cc3)c2C)ccc1O,0.262,0.623
Cc1cc(C)c(C#N)c(SC2CC(=O)N(c3ccccc3)C2=O)n1 (configuration not stated),0.24,0.609
CCn1c(=O)c(-c2[nH][nH]c(=O)c2C=C2C(=O)Nc3ncccc3C2=O)c(O)c2ccccc21,0.247,0.607
CCn1c(=O)c(-c2[nH][nH]c(=O)c2C=Nc2ncccn2)c(O)c2ccccc21,0.254,0.619
Cc1ccc(COc2ccc(C)nc2[N+](=O)[O-])cc1,0.233,0.637
CCC(=O)Nc1nc(-c2ccc(Cl)c(Cl)c2)nc2c1c(=O)oc1ccccc12,0.249,0.614
N#Cc1ccccc1OCC(=O)C1CC1,0.242,0.621

SMILES,"plate-normalized OD600 growth (temperature: 15°C, 48 h)","plate-normalized OD600 growth (temperature: 37°C, 24 h)"
CCOC(=O)c1c(CN2CCN(Cc3oc4ccc(OC)cc4c3C(=O)OCC)CC2)oc2ccc(OC)cc12,0.247,0.62
COc1cc(S(=O)(=O)N2CCN(Cc3ccc4c(c3)OCO4)CC2)c(C)cc1C,0.241,0.64
O=C(O)CCCN1C(=O)C(=O)C(=C(O)c2ccccc2)C1c1ccc(Br)cc1 (configuration not stated),0.226,0.646
COc1ccc2ccccc2c1/C=C1/C=C(c2ccccc2)OC1=O,0.241,0.648
COC(=O)c1ccccc1-n1cccc1C(=O)OC,0.266,0.616
CCOC(=O)c1c(CN2CCN(C(=O)OCC)CC2)n(-c2ccccc2)c2ccc(O)cc12,0.25,0.652
COc1ccc(OC)c(/C=C2\C(=N)N3N=C(C)SC3=NC2=O)c1,0.26,0.637
CCCOc1ccc(/C=N/Nc2nc(=O)[nH]nc2C)cc1OC,0.254,0.633
Cc1ccccc1NC(=S)NN1C(=O)CSC1/C=C/c1ccccc1 (configuration not stated),0.251,0.608
COc1ccccc1N1CCN(C(=O)C(C)Nc2ccccn2)CC1 (configuration not stated),0.248,0.62
CC(=O)CS(=O)(=O)c1ccc(Cl)cc1,0.259,0.614
Cc1ccc(NC(=O)Nc2ccc(C)c(NC(=O)Nc3ccc(C)cc3)c2)cc1,0.242,0.578
Nc1nc(N)nc(Cc2ccccc2)n1,0.25,0.622
CC(C)CC(=O)N(NC(=O)c1ccccc1)c1ccccc1,0.22,0.615
CC(C)(C)c1ccc(S(=O)(=O)Nc2ccc(Oc3ccc(NS(=O)(=O)c4ccc(C(C)(C)C)cc4)cc3)cc2)cc1,0.251,0.621
CSc1nc(N)nc(N2CCCCC2)n1,0.26,0.647
CCOC(=O)CN1NC2(CCC(C)CC2)NC1=S (configuration not stated),0.249,0.614
O=C(CSc1nnnn1-c1ccccc1)NC1Cc2ccccc2C1,0.284,0.645
O=C1CCC(C(=O)O)(c2ccccc2)C1 (configuration not stated),0.243,0.611
COc1ccc(/C=C2/N=C(c3ccccc3)N(Cc3ccco3)C2=O)cc1,0.237,0.614
Cc1cc(Cl)nc(NNC(=O)NC2CCCCC2)c1C#N,0.244,0.607
Cc1ccc(C(=O)Nc2cccc(C(=O)O)c2)cc1S(=O)(=O)N1CCCC1,0.222,0.622
O=C(CCC(=O)Nc1cccc(Cl)c1)N/N=C/c1ccco1,0.259,0.629

# Part of the list above in order of length of the SMILES, descending.
SMILES,"plate-normalized OD600 growth (temperature: 15°C, 48 h)","plate-normalized OD600 growth (temperature: 37°C, 24 h)"
CCOC(=O)c1c(CN2CCN(Cc3oc4ccc(OC)cc4c3C(=O)OCC)CC2)oc2ccc(OC)cc12,0.247,0.62
CCOC(=O)c1c(CN2CCN(C(=O)OCC)CC2)n(-c2ccccc2)c2ccc(O)cc12,0.25,0.652
COc1ccc(/C=C2/N=C(c3ccccc3)N(Cc3ccco3)C2=O)cc1,0.237,0.614
O=C(CCC(=O)Nc1cccc(Cl)c1)N/N=C/c1ccco1,0.259,0.629

# Next results:

SMILES,"plate-normalized OD600 growth (temperature: 15°C, 48 h)","plate-normalized OD600 growth (temperature: 37°C, 24 h)"
C/C(=N\Nc1ccccc1)c1cc(=O)n(-c2ccccn2)c(C)c1C(=O)Nc1ccccn1,0.244,0.617
CC[C@@H]1C(=O)OC[C@@H]1Cc1cncn1C,0.246,0.634
Cc1nn(CC(=O)NNC(=O)COc2ccc(Cl)cc2Cl)c(C)c1Br,0.235,0.607
O=C(CCNc1n[nH]c(=O)[nH]c1=O)NCc1ccco1,0.233,0.645
O=C(COc1ccccc1)Nc1cc(-c2nc3ncccc3o2)ccc1Cl,0.222,0.614
CCCOc1ccc(N2C(=O)CC(NNC(=O)c3ccc(Br)s3)C2=O)cc1 (configuration not stated),0.233,0.604
O=C(COc1ccc(/C=N/NC(=O)CO)cc1)NCC1CCCO1 (configuration not stated),0.227,0.668
O=C(CSc1nc2ccc(N3C(=O)c4ccc([N+](=O)[O-])cc4C3=O)cc2s1)Nc1ccccc1C(F)(F)F,0.247,0.617
O=C(NCCN1CCOCC1)c1c(O)c2ccccc2[nH]c1=O,0.248,0.626
N#Cc1ccccc1COc1ccc(/C=N\NC(=O)C(O)(c2ccccc2)c2ccccc2)cc1I,0.25,0.618
CC(=O)OCc1ccc(/C=C(\C#N)S(=O)(=O)c2ccc(Cl)cc2)o1,0.253,0.65
CN(C)C=O.O=C(COc1ccc(Cl)cc1Cl)NNc1cc(N2CCOCC2)nc(N2CCOCC2)n1.O=C(COc1ccc(Cl)cc1Cl)NNc1cc(N2CCOCC2)nc(N2CCOCC2)n1.O=C(COc1ccc(Cl)cc1Cl)NNc1cc(N2CCOCC2)nc(N2CCOCC2)n1.O=C(COc1ccc(Cl)cc1Cl)NNc1cc(N2CCOCC2)nc(N2CCOCC2)n1.O=C(COc1ccc(Cl)cc1Cl)NNc1cc(N2CCOCC2)nc(N2CCOCC2)n1.O=C(COc1ccc(Cl)cc1Cl)NNc1cc(N2CCOCC2)nc(N2CCOCC2)n1.O=C(COc1ccc(Cl)cc1Cl)NNc1cc(N2CCOCC2)nc(N2CCOCC2)n1,0.247,0.604
S=C1NCN(CCN2CCCC2)CN1,0.252,0.609
CN1CCN(Cc2cn[nH]c2-c2ccccc2)CC1,0.228,0.63
CCOC(=O)c1ccc(-c2ccc(/C=C(\C#N)C(=O)NC3CCCCC3)o2)cc1,0.241,0.604
Cn1sc2cc([N+](=O)[O-])cc([N+](=O)[O-])c2c1=O,0.252,0.619
Cc1ccc(N2CC(=O)N(/N=C/c3ccc(F)cc3)C2=S)cc1,0.232,0.63
Cc1oc(S(=O)(=O)N(C)C)cc1C(=O)O,0.236,0.608
COc1ccc2oc(=O)c(C(=O)OCc3ccccc3)cc2c1,0.252,0.622
CCCCC(CC)CNC(=O)C(=O)NCCc1ccc(OC)c(OC)c1 (configuration not stated),0.245,0.643
Cc1cccc(C)c1NC(=O)CSc1ccc(C(F)(F)F)cn1,0.245,0.614
C/C(=N/OC(=O)c1ccc(Cl)cc1)c1ccc(F)cc1,0.236,0.601
